The results in this text go back to PMC5591263.

Protein sequences, listed by entry. Tags and fused reporters are not part of them.
UniProt Q9Z2X8: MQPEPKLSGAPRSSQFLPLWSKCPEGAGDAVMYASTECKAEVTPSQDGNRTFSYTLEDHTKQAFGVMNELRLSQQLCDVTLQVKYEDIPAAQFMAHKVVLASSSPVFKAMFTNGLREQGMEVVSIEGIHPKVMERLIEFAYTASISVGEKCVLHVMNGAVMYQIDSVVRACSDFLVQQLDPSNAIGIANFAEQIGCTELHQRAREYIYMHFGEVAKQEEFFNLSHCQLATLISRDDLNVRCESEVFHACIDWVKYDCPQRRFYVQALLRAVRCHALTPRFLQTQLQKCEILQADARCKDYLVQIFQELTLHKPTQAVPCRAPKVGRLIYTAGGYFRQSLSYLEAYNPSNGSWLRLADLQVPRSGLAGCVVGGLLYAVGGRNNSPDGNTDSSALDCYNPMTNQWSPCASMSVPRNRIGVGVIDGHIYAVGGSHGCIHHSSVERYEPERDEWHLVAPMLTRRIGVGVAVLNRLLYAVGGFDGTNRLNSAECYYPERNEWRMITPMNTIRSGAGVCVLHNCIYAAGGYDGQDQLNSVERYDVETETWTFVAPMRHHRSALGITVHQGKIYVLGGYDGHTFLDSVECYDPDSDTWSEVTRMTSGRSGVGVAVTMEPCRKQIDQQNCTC
UniProt Q9JLV5: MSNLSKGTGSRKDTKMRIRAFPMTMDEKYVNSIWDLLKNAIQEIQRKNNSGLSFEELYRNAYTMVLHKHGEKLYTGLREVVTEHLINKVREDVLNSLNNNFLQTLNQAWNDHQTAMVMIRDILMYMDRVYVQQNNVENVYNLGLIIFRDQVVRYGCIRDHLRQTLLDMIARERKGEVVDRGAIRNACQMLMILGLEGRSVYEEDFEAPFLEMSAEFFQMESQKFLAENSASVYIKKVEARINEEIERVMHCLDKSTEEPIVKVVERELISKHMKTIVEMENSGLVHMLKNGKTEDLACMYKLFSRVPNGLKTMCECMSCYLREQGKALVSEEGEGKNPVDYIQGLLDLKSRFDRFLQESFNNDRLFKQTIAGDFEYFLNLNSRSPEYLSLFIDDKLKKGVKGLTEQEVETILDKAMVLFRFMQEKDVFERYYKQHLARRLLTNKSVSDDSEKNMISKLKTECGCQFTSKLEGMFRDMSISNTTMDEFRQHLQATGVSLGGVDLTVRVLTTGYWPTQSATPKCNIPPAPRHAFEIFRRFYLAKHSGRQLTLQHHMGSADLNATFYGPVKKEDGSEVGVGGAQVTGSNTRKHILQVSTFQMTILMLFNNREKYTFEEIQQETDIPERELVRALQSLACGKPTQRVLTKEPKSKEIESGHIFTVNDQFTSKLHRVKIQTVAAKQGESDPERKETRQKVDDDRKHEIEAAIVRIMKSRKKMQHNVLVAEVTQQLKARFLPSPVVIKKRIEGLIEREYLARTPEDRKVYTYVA

These are yes or no findings as the source states them, for the method shown. Binding seen in cells or lysates may run through a third protein. Some binding calls cover weakened binding; strength is not graded here.

Assay [1] concerns the target Keap1 (mouse (endogenous in Balb/c colon)) (UniProt Q9Z2X8). Briefly: condition: only colon of mice treated with carnosic acid (CA); co-IP; as a1, colonic tissue of DSS-treated mice given carnosic acid (CA, 50 and 100 mg/kg by gavage once daily); immunoprecipitated with anti-Keap1 antibody; Western blot. (A western blot detects proteins with antibodies after separation by electrophoresis.)

The target is the same in assay [2]. Briefly: co-IP; colonic tissue of mice (DSS colitis model) homogenised in lysis buffer with Triton X-100; immunoprecipitated with anti-Keap1 antibody or IgG and protein A/G-Sepharose; Western blot.

With Cullin3 (from UniProt Q9JLV5 1-768), the binding result in assay [1] is recorded as “no binding”; in assay [2] it was “binds”.
